## Drug screen on melanoma cell lines: apoptosis marker

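The test systems are human melanoma cell lines, treated with two drugs together for 72 h and then stained and imaged. Values are the share of nuclei positive for cleaved PARP as a percentage of the same share in the DMSO control: 100 is the control level, higher means more apoptosis. Concentrations were fixed for each drug; these are the higher of two levels. The file gives one value for each pair and line, without errors, so small differences may be noise. The marker varies much from line to line, for technical or biological reasons.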
This is part of the screen, not chosen by result.

Drug key:
perifosine, 2 µM: CCCCCCCCCCCCCCCCCCOP(=O)([O-])OC1CC[N+](C)(C)CC1
PF-04217903, 5 µM: OCCn1cc(-c2cnc3nnn(Cc4ccc5ncccc5c4)c3n2)cn1
stibogluconate, 10 µM: O=C(O)[C@@H]1[O][Sb](=[O])([O][Sb]2(=[O])[O][C@H]([C@H](O)CO)[C@H](O)[C@H](C(=O)O)[O]2)[O][C@H]([C@H](O)CO)[C@@H]1O (stereo partly shown)
pazopanib, 2 µM: Cc1ccc(Nc2nccc(N(C)c3ccc4c(C)n(C)nc4c3)n2)cc1S(N)(=O)=O
vorinostat, 0.4 µM: O=C(CCCCCCC(=O)Nc1ccccc1)NO
GSK650394, 0.8 µM: O=C(O)c1ccc(-c2c[nH]c3ncc(-c4ccccc4)cc23)cc1C1CCCC1
erlotinib, 4 µM: C#Cc1cccc(Nc2ncnc3cc(OCCOC)c(OCCOC)cc23)c1
ENMD-2076, 0.2 µM: Cc1cc(Nc2cc(N3CCN(C)CC3)nc(/C=C/c3ccccc3)n2)n[nH]1
BI-78D3, 1 µM: O=c1[nH]nc(Sc2ncc([N+](=O)[O-])s2)n1-c1ccc2c(c1)OCCO2

stibogluconate + erlotinib gave WM115: 437; A2058: 198; SK-MEL-28: 197; UACC-257: 39.4; SK-MEL-30: 184.
ENMD-2076 + pazopanib gave WM115: 282; A2058: 111; SK-MEL-28: 87.7; UACC-257: 98.2; SK-MEL-30: 81.5.
PF-04217903 + ENMD-2076 gave WM115: 333; A2058: 111; SK-MEL-28: 133; UACC-257: 38.0; SK-MEL-30: 110.
stibogluconate + ENMD-2076 gave WM115: 307; A2058: 155; SK-MEL-28: 29.1; UACC-257: 71.7; SK-MEL-30: 68.9.
vorinostat + pazopanib gave WM115: 109; A2058: 140; SK-MEL-28: 46.9; UACC-257: 44.9; SK-MEL-30: 120.
pazopanib + BI-78D3 gave WM115: 108; A2058: 117; SK-MEL-28: 79.0; UACC-257: 93.5; SK-MEL-30: 52.2.
pazopanib + PF-04217903 gave WM115: 115; A2058: 138; SK-MEL-28: 70.4; UACC-257: 74.5; SK-MEL-30: 66.3.
PF-04217903 + stibogluconate gave WM115: 192; A2058: 182; SK-MEL-28: 95.4; UACC-257: 108; SK-MEL-30: 135.
vorinostat + BI-78D3 gave WM115: 60.4; A2058: 56.3; SK-MEL-28: 201; UACC-257: 42.0; SK-MEL-30: 133.
BI-78D3 + stibogluconate gave WM115: 84.5; A2058: 156; SK-MEL-28: 65.7; UACC-257: 124; SK-MEL-30: 77.1.
pazopanib + stibogluconate gave WM115: 74.6; A2058: 78.5; SK-MEL-28: 195; UACC-257: 63.3; SK-MEL-30: 99.7.
stibogluconate + vorinostat gave WM115: 224; A2058: 99.4; SK-MEL-28: 228; UACC-257: 264; SK-MEL-30: 136.
pazopanib + erlotinib gave WM115: 773; A2058: 187; SK-MEL-28: 52.2; UACC-257: 31.1; SK-MEL-30: 140.
GSK650394 + stibogluconate gave WM115: 242; A2058: 89.1; SK-MEL-28: 58.8; UACC-257: 154; SK-MEL-30: 155.
vorinostat + ENMD-2076 gave WM115: 376; A2058: 120; SK-MEL-28: 183; UACC-257: 40.5; SK-MEL-30: 110.
perifosine + ENMD-2076 gave WM115: 441; A2058: 195; SK-MEL-28: 151; UACC-257: 40.8; SK-MEL-30: 92.5.
erlotinib + perifosine gave WM115: 625; A2058: 211; SK-MEL-28: 107; UACC-257: 36.8; SK-MEL-30: 82.7.
vorinostat + PF-04217903 gave WM115: 103; A2058: 64.8; SK-MEL-28: 126; UACC-257: 106; SK-MEL-30: 230.
PF-04217903 + GSK650394 gave WM115: 116; A2058: 145; SK-MEL-28: 191; UACC-257: 79.4; SK-MEL-30: 113.
erlotinib + ENMD-2076 gave WM115: 1050; A2058: 304; SK-MEL-28: 130; UACC-257: 59.2; SK-MEL-30: 198.
perifosine + pazopanib gave WM115: 59.3; A2058: 154; SK-MEL-28: 54.1; UACC-257: 100; SK-MEL-30: 137.
erlotinib + GSK650394 gave WM115: 141; A2058: 215; SK-MEL-28: 380; UACC-257: 41.4; SK-MEL-30: 103.
vorinostat + GSK650394 gave WM115: 39.6; A2058: 114; SK-MEL-28: 125; UACC-257: 62.3; SK-MEL-30: 156.
stibogluconate + perifosine gave WM115: 203; A2058: 87.6; SK-MEL-28: 165; UACC-257: 90.4; SK-MEL-30: 146.
GSK650394 + perifosine gave WM115: 60.1; A2058: 208; SK-MEL-28: 148; UACC-257: 75.7; SK-MEL-30: 53.2.
perifosine + BI-78D3 gave WM115: 171; A2058: 120; SK-MEL-28: 116; UACC-257: 49.3; SK-MEL-30: 85.3.
erlotinib + vorinostat gave WM115: 55.4; A2058: 75.1; SK-MEL-28: 82.5; UACC-257: 34.6; SK-MEL-30: 84.4.
BI-78D3 + erlotinib gave WM115: 364; A2058: 189; SK-MEL-28: 97.2; UACC-257: 43.5; SK-MEL-30: 160.
PF-04217903 + BI-78D3 gave WM115: 146; A2058: 60.2; SK-MEL-28: 91.0; UACC-257: 114; SK-MEL-30: 52.9.
perifosine + PF-04217903 gave WM115: 65.8; A2058: 234; SK-MEL-28: 166; UACC-257: 78.6; SK-MEL-30: 85.7.

2 of the entries, repeated:

Combination,WM115,A2058,SK-MEL-28,UACC-257,SK-MEL-30
perifosine + ENMD-2076,441,195,151,40.8,92.5
erlotinib + perifosine,625,211,107,36.8,82.7

From a melanoma drug combination screen (doi:10.1371/journal.pone.0140310); values rounded.